The whole screen tested about 320,000 compounds, of which about 2,100 (0.66%) were called active. This list was built around the results that the source calls inconclusive (neither active nor inactive); the mix of calls is not that of the screen. Calls follow the shape of the dose curve; as a rule, active = well fitted inhibition curve with a large enough effect in the signal ratio, with a control signal flat (not every such curve was filed as active); inconclusive = small, poorly fitted or top-dose-only effect, or effect the other way, or a change in a side signal; inactive = flat fitted curve, though single readings scatter; the % refers to the signal ratio. Potencies of inconclusive entries are doubtful fits and often do not repeat.
Test: qHTS Assay for Lipid Storage Modulators in Drosophila S3 Cells
Settings: BODIPY lipid droplet fluorescence, 18-24 h, cells fed with added oleic acid; lipid storage change, negative = inhibition: at 46.1 µM (top of the series) unless noted
How it was run: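 Drosophila S3 cells got compounds at several concentrations plus oleic acid (400 uM solution). Laser-scanning cytometry with 488 nm excitation read lipid droplets at 500-530 nm and cells at 575-640 nm. Percent activity was relative to 20 uM Triacsin C.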
% is scaled to controls: 0 for no effect and ±100 for the full control effect; potency is read from the fitted curve at half-maximal effect.

Compound	lipid storage change, negative = inhibition	Potency
Cc1cccc(-n2ccnc2CN2CCC(CO)(Cc3ccccc3)CC2)c1	inconclusive: 15.2%	–
CNS(=O)(=O)c1cccc(C(=O)OCC(=O)Nc2ccc(Cl)cc2F)c1	inconclusive: -16.6%	–
COC(=O)N/N=C/c1ccc(-c2cc(Cl)cc(Cl)c2)o1	inconclusive: -19.6%	–
COc1ccccc1S(=O)(=O)Cc1ccc(C(=O)NC2CCCCCC2)o1	inconclusive: -2.56%	–
Cc1ccc(CN(C)CC(=O)Nc2ccccc2C(=O)NC2CC2)o1	inconclusive: -1.05%	–
CC(C)OCc1ccc(C(=O)N2CCN(S(=O)(=O)c3ccc(Br)s3)CC2)cc1	–	inconclusive: 29.1 µM [falling, single point]
Cc1noc(C)c1C(=O)Nc1cccc(S(=O)(=O)N2CCCCC2)c1	–	inconclusive: 0.259 µM [falling, partial curve, poor fit]
O=C(C1CCC1)N1CCCc2cc(S(=O)(=O)N3CCN(c4ccccc4)CC3)ccc21	–	active: 3.26 µM
CCN(CC(=O)NCc1ccc(Cl)cc1)C(=O)/C=C/c1ccco1	inconclusive: 11.6%	–
COc1ccc(CNC(=S)NC2CCCCC2)cc1	–	inconclusive: 29.1 µM [falling, single point]
O=C(CN1C(=O)S/C(=C\c2ccc(C(=O)O)cc2)C1=O)Nc1ccccc1	–	inconclusive: 25.9 µM [activator, single point]
CCN(CC)S(=O)(=O)c1ccc(N2CCN(C)CC2)c(NC(=O)Nc2ccc(C)cc2)c1	inconclusive: -65.5%	–
C=CCn1c(CCNC(=O)c2cccs2)nnc1SCC(=O)Nc1cccc(Cl)c1C	inconclusive: -28.9%	–
O=C(CSc1ncnc2scc(-c3ccc(Cl)cc3)c12)NCc1ccc2c(c1)OCO2	inconclusive: -7.87%	–
CS(=O)(=O)Nc1ccc(C(=O)NCc2ccc3c(c2)OCO3)cc1	–	inconclusive: 6.51 µM [activator, single point]
CCC(C(=O)Nc1cccc(C(=O)O)c1C)c1ccccc1 (centres undefined)	inconclusive: -30.3% [at 0.00295 µM]	–
Cc1nnc(NC(=O)c2ccc(S(=O)(=O)N3CCCCC3C)cc2)o1 (centres undefined)	inconclusive: -5.63%	–
Cc1ccccc1CC1(CO)CCCN(C(=O)c2cccc(Cl)c2)C1 (centres undefined)	inconclusive: 10.5%	–
COc1cc2sc(C)nc2c2ccccc12	inconclusive: 22.6%	–
O=C(O)/C=C/C(=O)Nc1ccccc1C(=O)OCC(=O)c1ccc2c(c1)OCCO2	inconclusive: 19.4%	–
O=C(CN1CCN(S(=O)(=O)c2ccc(F)cc2)CC1)NCC1(N2CCOCC2)CCCCC1	–	inconclusive: 20.6 µM [falling, single point]
CC1=C(C(=O)OCc2ccccc2)C(c2ccc(-c3ccccc3)cc2)NC(=O)N1CCCCCC(=O)O (centres undefined)	inconclusive: -8.61%	–
CN(C)CCCOC(=O)C1c2ccccc2Oc2ccccc21	inconclusive: -17.2%	–
O=C(OCC(=O)N1CCOCC1)c1ccccc1SCC(=O)N1CCCC1	inconclusive: -22.4%	–
N/C(=N\N=C/c1ccc(F)cc1)N/N=C\c1ccc(F)cc1	inconclusive: -21.7%	–

Compound	lipid storage change, negative = inhibition	Potency
Cc1ccc(-c2c(C)n([O-])c3c([n+]2=O)CCCCC3)cc1	inconclusive: -0.488%	–
CCCCN1Cc2c(nc3cc(-c4ccccc4)[nH]n3c2=O)C1=O	inconclusive: -43.2%	–
CC(=O)NC(CCS(C)(=O)=O)C(=O)Nc1ccc(C)c(F)c1 (centres undefined)	inconclusive: 23.5%	–
Cc1ccc(O)c(N=Nc2ccc(S(=O)(=O)N3CCOCC3)cc2)c1	–	inconclusive: 23.1 µM [falling, partial curve, poor fit]
COc1ccc(C(=O)NCC(=O)N2CCN(c3ncccn3)CC2)cc1OC	–	inconclusive: 6.51 µM [falling, single point]
CCn1c(N2CCN(S(=O)(=O)c3ccc(OC)cc3)CC2)nc2ccccc21	–	inconclusive: 29.1 µM [falling, single point]
CCOC(=O)c1ccc(NC(=O)C2(c3ccc(Cl)cc3)CCCC2)cc1	inconclusive: -42.7%	–
CC1(C)NC(=O)N(CCOCCOc2ccc3ccccc3c2Br)C1=O	inconclusive: 33.8%	–
COc1ccccc1N1CCN(C(=O)c2ccc(-c3nc4ccccc4s3)o2)CC1	–	inconclusive: 0.731 µM [falling, single point]
Cc1ccc(S(=O)(=O)N2CCOCC2)cc1C(=O)NCc1cccs1	inconclusive: -3.08%	–
COc1ccc(OCC(=O)N(Cc2ccco2)C2CCS(=O)(=O)C2)cc1 (centres undefined)	–	inconclusive: 0.731 µM [falling, single point]
COc1cc(/C=C2\C(=O)NN(c3ccc(C)cc3)C2=O)cc([N+](=O)[O-])c1O	inconclusive: -7.27%	–
Cc1ccsc1/C=N/NC(=O)c1cccnc1	inconclusive: 8.11%	–
COc1ccc(N2CCN(C(=O)CNC(=O)c3ccco3)CC2)cc1	inconclusive: 17.8%	–
Nc1nnc(SCC(=O)Nc2cccc(S(=O)(=O)N3CCCCC3)c2)s1	inconclusive: 16%	–
O=C(NC1CC1)c1ccc2c(c1)S(=O)(=O)c1cc(Cl)ccc1C2=O	inconclusive: 11.7%	–
NS(=O)(=O)OCCCCCc1ccccc1	–	inconclusive: 4.11 µM [activator, full curve]
COC(=O)c1c(NC(=O)c2c(C)noc2C)sc2c1CCCCCC2	inconclusive: -71%	–
CCN(CC)c1cc(C)c(C#N)c2nc3ccccc3n12	inconclusive: -0.961%	–
O=C(NCc1ccc(C(=O)O)cc1)OCc1ccccc1	inconclusive: 18.6%	–
COc1ccc(N2C(=O)c3ccccc3NC2c2ccc(OC)c(Cn3cc([N+](=O)[O-])cn3)c2)cc1 (centres undefined)	–	inconclusive: 10.3 µM [activator, partial curve]
Cn1c(Sc2ccccc2Cl)c(C=O)c2ccccc21	–	inconclusive: 29.1 µM [falling, single point]
CSc1cccc(NC(=O)CN(C2CCCCC2)S(C)(=O)=O)c1	inconclusive: 31.6%	–
COc1ccc(CNCC(=O)Nc2sccc2C#N)cc1	inconclusive: -2.36%	–

3 records picked at random from those above:
Compound	lipid storage change, negative = inhibition	Potency
Cc1ccc(O)c(N=Nc2ccc(S(=O)(=O)N3CCOCC3)cc2)c1	–	inconclusive: 23.1 µM [falling, partial curve, poor fit]
CC(=O)NC(CCS(C)(=O)=O)C(=O)Nc1ccc(C)c(F)c1 (centres undefined)	inconclusive: 23.5%	–
COc1ccc(N2C(=O)c3ccccc3NC2c2ccc(OC)c(Cn3cc([N+](=O)[O-])cn3)c2)cc1 (centres undefined)	–	inconclusive: 10.3 µM [activator, partial curve]

Source: PubChem BioAssay AID2685 (National Center for Advancing Translational Sciences (NCATS), 2010)
